Primary screen of a compound library

Protein sequences, listed by entry. Tags and fused reporters are not part of them. Residues count along the entry.
UniProt A4I591, 1-473: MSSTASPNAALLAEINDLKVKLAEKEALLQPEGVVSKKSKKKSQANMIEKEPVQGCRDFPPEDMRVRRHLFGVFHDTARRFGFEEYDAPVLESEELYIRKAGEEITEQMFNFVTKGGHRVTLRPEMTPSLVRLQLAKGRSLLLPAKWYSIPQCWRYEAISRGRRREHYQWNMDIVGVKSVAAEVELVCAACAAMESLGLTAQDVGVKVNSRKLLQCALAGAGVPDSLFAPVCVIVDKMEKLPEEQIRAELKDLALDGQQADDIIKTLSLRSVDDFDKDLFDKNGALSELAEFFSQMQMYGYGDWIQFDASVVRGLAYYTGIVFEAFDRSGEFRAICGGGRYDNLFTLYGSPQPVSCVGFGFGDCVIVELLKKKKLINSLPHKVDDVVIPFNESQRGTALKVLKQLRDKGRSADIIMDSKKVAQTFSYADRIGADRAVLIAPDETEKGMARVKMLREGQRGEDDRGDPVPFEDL
UniProt P9WPC5, whole entry: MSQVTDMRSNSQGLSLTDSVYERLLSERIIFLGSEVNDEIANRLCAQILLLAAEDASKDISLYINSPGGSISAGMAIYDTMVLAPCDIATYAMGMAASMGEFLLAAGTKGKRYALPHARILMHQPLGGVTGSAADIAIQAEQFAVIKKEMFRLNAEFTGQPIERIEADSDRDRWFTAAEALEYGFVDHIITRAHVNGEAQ
UniProt P9WPC3, whole entry partner: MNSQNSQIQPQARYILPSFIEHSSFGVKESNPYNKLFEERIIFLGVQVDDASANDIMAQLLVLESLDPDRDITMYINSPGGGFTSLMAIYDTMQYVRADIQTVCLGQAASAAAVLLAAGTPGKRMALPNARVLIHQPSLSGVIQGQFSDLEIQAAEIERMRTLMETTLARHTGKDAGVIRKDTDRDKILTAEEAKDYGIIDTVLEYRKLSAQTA
UniProt Q4DA54, 1-478: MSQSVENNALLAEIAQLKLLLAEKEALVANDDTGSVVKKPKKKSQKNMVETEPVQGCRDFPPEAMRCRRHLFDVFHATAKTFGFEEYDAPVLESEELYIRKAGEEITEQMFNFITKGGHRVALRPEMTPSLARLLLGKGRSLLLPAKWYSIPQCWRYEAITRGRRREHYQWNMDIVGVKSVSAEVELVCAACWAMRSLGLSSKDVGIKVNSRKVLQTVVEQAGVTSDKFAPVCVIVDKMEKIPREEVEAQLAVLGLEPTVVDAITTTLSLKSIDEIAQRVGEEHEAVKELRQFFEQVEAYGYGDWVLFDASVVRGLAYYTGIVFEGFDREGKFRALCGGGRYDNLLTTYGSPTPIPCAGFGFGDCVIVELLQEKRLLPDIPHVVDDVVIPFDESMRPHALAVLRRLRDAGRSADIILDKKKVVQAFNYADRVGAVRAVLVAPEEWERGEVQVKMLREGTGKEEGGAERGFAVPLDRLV

A: 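Assay of Toxoplasma gondii numbers, read through their beta-galactosidase reporter with a colour substrate. Compounds at 10 µM. Higher reads as fewer parasites (inferred from which compounds were picked for retests). About 67,000 compounds were tested under these conditions; 0.38% (about 260) showed 50% or more at least once.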
B: 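Whole-parasite assay of Trypanosoma brucei over 72 hours; the read-out is not stated. Tested at 30 µM. The record gives no direction; compounds that gave an IC50 in retests scored well above the rest, so higher reads as stronger inhibition. Values scatter widely below zero; nearly all retest evidence comes from the higher of the two concentrations used. Of about 64,000 compounds tested this way, about 940 (1.5%) reached 50% or more in at least one test.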
C: 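Histidine-tRNA ligase, Leishmania infantum (UniProt A4I591). Enzyme assay of histidyl-tRNA synthetase; the read-out is not stated. Tested at 30 µM. The record gives no direction; compounds that gave an IC50 in retests scored well above the rest, so higher reads as stronger inhibition. The assay is labelled LdHisRS but filed under L. infantum. About 69,000 compounds were tested under these conditions; 0.6% (about 410) showed 50% or more at least once.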
D: 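Protease assay of ClpP1P2, read by the AMC dye that it sets free. Target: ClpP1P2, Mycobacterium tuberculosis (UniProt P9WPC5 and UniProt P9WPC3). Tested at 50 µM. Direction is inferred from only a few compounds that gave an IC50; most scored high, so higher reads as stronger inhibition. Most other retested compounds had strongly negative values. About 69,000 compounds were tested under these conditions; 0.015% (about 10) showed 50% or more at least once.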
E: 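Enzyme assay of histidyl-tRNA synthetase; the read-out is not stated. Target: Histidine-tRNA ligase, Trypanosoma cruzi CL Brener (UniProt Q4DA54). Compounds at 30 µM. Direction is inferred from retests: higher values go with stronger inhibition. Size under these conditions: about 69,000 compounds, about 31 of them at 50% or above in at least one test.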

Values are the deposited “Percent Effect”, in %.
How 0% and 100% were set is not recorded. Most values in the screen are low, and negative values occur.
Compounds were drawn at random from those tested, without regard to their results.

{"structure": "CCOCCCC(=O)NCCC(=O)N1CCN(c2ccccn2)CC1", "A": 0.3519, "B": 12.31, "C": 28.57, "D": 0.5402, "E": -3.261}
{"structure": "CCCN1CCN(Cc2cccc(OC)c2)[C@H]2CS(=O)(=O)C[C@H]21", "C": 18.64, "D": -22.93, "E": 1.463}
{"structure": "[H][C@@]1([C@H](C)C(=O)NCCOC)CCc2c(C)cc(OCC(=O)O)c(C)c2C1", "A": 0.7685, "B": 5.161}
{"structure": "Cc1noc([C@H]2C[C@H]3OCC[C@H]3N(Cc3ccncc3)C2)n1", "C": 20.59, "D": 2.865, "E": 9.852}
{"structure": "Cc1cnc(N2C[C@@H]3[C@@H](C2)OCC(=O)N3CCN(C)C)nc1", "C": 11.97, "D": -11.8, "E": 9.816}
{"structure": "O=C(O)C(F)(F)F.[H][C@@]12CCN(c3ncccn3)C[C@]1([H])[C@H](C(=O)N(C)C)CCO2", "A": -0.8621, "B": -5.007}
{"structure": "CC(CCN(C)C)NC(=O)N1CCSC(C)(C)C1", "stereo": "stereo not drawn", "A": 21.01, "B": -0.6493, "C": 10.53, "D": 3.063, "E": 5.882}
{"structure": "CCCOC(=O)C(C)Sc1nnnn1C1CCOCC1", "stereo": "stereo not drawn", "B": -16.88, "C": 0, "D": -7.47, "E": -2.299}
{"structure": "Cc1cnn(CC2CN(Cc3nc4ccccc4s3)CCO2)c1", "stereo": "stereo not drawn", "A": 16.47, "B": 20.73, "C": 12.28, "D": -22.64, "E": 6.59}
{"structure": "Cc1nnn2c1COC(CNCc1nccs1)C2", "stereo": "stereo not drawn", "C": 0.885, "D": 7.091, "E": 0.8}
{"structure": "CC(C)[C@H]1CN(S(C)(=O)=O)C[C@@H]1NC(=O)c1ccnc(N)c1", "A": 13.17, "B": -73.03, "C": 3.968, "D": -18.3, "E": 2.353}
{"structure": "Cn1cc(S(=O)(=O)NC(=O)C2(c3ccccc3)CCC2)cn1", "A": 5.326, "B": -27.77, "C": 22.86, "D": 6.275, "E": 4.124}
{"structure": "O=C1CCN(C(=O)NCc2cccc(Oc3ccccc3)c2)CCN1", "A": 3.611, "B": -12.98, "C": 12.5, "D": -3.5, "E": 6.077}
{"structure": "Cc1nc(N2CCN(C)CC2)ncc1C(=O)N1CCN(C)CC1", "A": 17.54, "B": 7.134, "C": 8.219, "D": -1.702, "E": 4}
{"structure": "O=C(NCCNc1ncccn1)c1ccc(-c2ccco2)[nH]c1=O", "A": 6.835, "B": 5.3, "C": 33.33, "D": 9.813, "E": 2.256}
{"structure": "CCNC(=O)NC(=O)CNC(C)(CC)c1nccs1", "stereo": "stereo not drawn", "A": -0.365, "B": -21.13, "C": 0, "D": -1.364, "E": 3.191}
{"structure": "N#CCCN(CCC#N)C(=O)c1ccc(COc2ccccc2C#N)o1", "A": -3.728, "B": -5.715, "C": 18.67, "D": -7.517, "E": -3.804}
{"structure": "COC(=O)c1ccc(N2CCC(C(O)c3ccccc3)CC2)nn1", "stereo": "stereo not drawn", "A": -0.2283, "B": -14.42, "C": 25.83, "D": -2.611, "E": 13.16}

Once more, the final 2:

N#CCCN(CCC#N)C(=O)c1ccc(COc2ccccc2C#N)o1 read A: -3.728%; B: -5.715%; C: 18.67%; D: -7.517%; E: -3.804%.
COC(=O)c1ccc(N2CCC(C(O)c3ccccc3)CC2)nn1 (stereo not drawn) read A: -0.2283%; B: -14.42%; C: 25.83%; D: -2.611%; E: 13.16%.

Measurements from “University of Dundee, Small-Polar-MMV Screening Library” (2021), ChEMBL document CHEMBL3988442.